# Reference: PMC7819943, “Rice protein-binding microarrays: a tool to detect cis-acting elements near promoter regions in rice”
# Some of the results follow.
# Target: T1, OsSMF1 (Oryza sativa, UniProt Q6ZLB0 1-436)
# T1 sequence: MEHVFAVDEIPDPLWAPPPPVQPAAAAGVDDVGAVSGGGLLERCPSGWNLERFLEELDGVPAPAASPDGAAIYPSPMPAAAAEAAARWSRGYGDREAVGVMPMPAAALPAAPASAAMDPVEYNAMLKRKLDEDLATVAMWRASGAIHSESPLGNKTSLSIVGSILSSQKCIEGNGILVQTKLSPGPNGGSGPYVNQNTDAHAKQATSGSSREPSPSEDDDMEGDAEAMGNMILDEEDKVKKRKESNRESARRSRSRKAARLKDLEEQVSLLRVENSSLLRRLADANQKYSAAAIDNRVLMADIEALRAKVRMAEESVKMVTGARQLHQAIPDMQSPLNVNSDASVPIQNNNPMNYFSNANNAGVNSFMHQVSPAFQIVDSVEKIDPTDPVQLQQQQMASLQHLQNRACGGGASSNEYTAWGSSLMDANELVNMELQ
# Test: protein-binding microarray (RPBM); PBS, 2% BSA, 51.3 ng/ul salmon testes DNA, 50 uM zinc acetate, 200 nM TF, 25 C, 1 h; high values mean tight binding
# Settings: protein: recombinant; tags: N-terminal polyhistidine and DsRed monomer fusion (pET32a); chain copies: 2; label: CyDye5-dUTP incorporated in the synthesized complementary strand; 3' TTTTT single-stranded linker to array surface; dsDNA, one strand shown
# How it was run: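 Binding signal is defined as the fluorescence intensity of each feature in arbitrary units, read on an Axon 4000B scanner. Transcription factors with N-terminal polyhistidine and DsRed fusions came from E. coli BL21-CodonPlus and were purified on Ni–NTA. They were incubated at 200 nM for 1 h at 25 °C on a custom Agilent array that had been made double-stranded with Cy5-dUTP, with 50 µM zinc acetate present, and the array was washed.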
row,Sequence,binding signal
1,CCGTGGGCCCCACACGTCAGCCACACTGCAATCACCAGATCGGAGTCACCTAGTGCAG,10700 fluorescence intensity (a.u.)
2,GTTTATATAAAGTCATGAGCTAGCGCCACGCCACACGGACCGGAGTCACCTAGTGCAG,25000 fluorescence intensity (a.u.)
3,AAGGAAGAAATAATCTCTCGTGAGCTCTCATACTCCACACCGGAGTCACCTAGTGCAG,16400 fluorescence intensity (a.u.)
4,GCCCGCGGCTCGGCCCAAAGAACGCGTGTTTGGCCCGGCCCGGAGTCACCTAGTGCAG,3530 fluorescence intensity (a.u.)
5,CGCTCTCCTCAACCCGACGGGACGTGTCACACACTCACACCGGAGTCACCTAGTGCAG,6010 fluorescence intensity (a.u.)
6,GTCCACGCCACTTGATGACACGCTGTCGCCAGCGGAAGTTCGGAGTCACCTAGTGCAG,3140 fluorescence intensity (a.u.)
7,ATATCTCATAACCGTGAAATTATAACGGATGTGTTCAAATCGGAGTCACCTAGTGCAG,19100 fluorescence intensity (a.u.)
8,AATGTCACACCGTGTAATGTCATGTCAGAGGATACGGTTGCGGAGTCACCTAGTGCAG,5710 fluorescence intensity (a.u.)
9,TAACCAAATGGGGTGACTAGGTCAGATAGAGCTGATCAGCCGGAGTCACCTAGTGCAG,3520 fluorescence intensity (a.u.)
10,AGGCTGAGCTTCAAGCTGAAGCTGTGACAAACAGTTCCCTCGGAGTCACCTAGTGCAG,3350 fluorescence intensity (a.u.)
11,ACCGATCTACATCAAATTTGAGGGTAACTTTTATTTCCGCCGGAGTCACCTAGTGCAG,3640 fluorescence intensity (a.u.)
12,GCCTGCCCGGCCACATCATGTTTCCATCGTTGTCCTCCTTCGGAGTCACCTAGTGCAG,5930 fluorescence intensity (a.u.)
13,CCAGGATAAAATAAAGGTTGTATGTTACAAATGTTTGATCCGGAGTCACCTAGTGCAG,42200 fluorescence intensity (a.u.)
14,TCGGATTGACGATAAGAATCTTAAAATTTCCCGGTGTCATCGGAGTCACCTAGTGCAG,3420 fluorescence intensity (a.u.)
15,TGAATACCATGCCAGGTTTGATCATGCCATAATTAGTACGCGGAGTCACCTAGTGCAG,3510 fluorescence intensity (a.u.)
16,AGCGGCGTTGCGAGCCGCATCAACCGCGAGGGCGACGGTGCGGAGTCACCTAGTGCAG,3870 fluorescence intensity (a.u.)
17,CGCATTCGCTCGCCACGCACGACGTCACGCGCGCGGCCGGCGGAGTCACCTAGTGCAG,5620 fluorescence intensity (a.u.)
18,TGAAGGCAAAGGATAGCGCATGGTTGCTGGCAGCCTTAGCCGGAGTCACCTAGTGCAG,3390 fluorescence intensity (a.u.)
19,AAGTGAGCCCAACAATCACAGGTGTGTTGCTTCCATGTTCCGGAGTCACCTAGTGCAG,3560 fluorescence intensity (a.u.)
20,TTGTCATATACTCGTCTCAATCTTAGAACAGTTTTGAGTGCGGAGTCACCTAGTGCAG,3970 fluorescence intensity (a.u.)
21,GTACAGATGAAGAGATTTTAAGTACCGATGACCGTGACTGCGGAGTCACCTAGTGCAG,3250 fluorescence intensity (a.u.)
22,GCGGAGCCGACGCGGCGGCGATGCTCGGCCGCGTGGCGGTCGGAGTCACCTAGTGCAG,3840 fluorescence intensity (a.u.)
23,GCCTTCCAAAACCGCGAAACTCCTCTCCTCGCCACGCGCGCGGAGTCACCTAGTGCAG,4390 fluorescence intensity (a.u.)
24,CCAGAGTACAGAGACGTTCCACCCACCCCGGGCCACCGAACGGAGTCACCTAGTGCAG,4150 fluorescence intensity (a.u.)
25,TTCTTTGCAGAATCTGAGTCATCGCCACGTCAAACAACCTCGGAGTCACCTAGTGCAG,15100 fluorescence intensity (a.u.)
26,GTATAAATCCTTGCCATGTATTACATCGTGTTAATCTGGTCGGAGTCACCTAGTGCAG,3820 fluorescence intensity (a.u.)
27,GGTTGGCTGCGTAGTGCGGTGGCGGACACTTGGTCCATCGCGGAGTCACCTAGTGCAG,3930 fluorescence intensity (a.u.)

row,Sequence,binding signal
1,GGCGGCGGGGAGGTGGCGGCAAGGGAGGCGGCGGCGAGGGCGGAGTCACCTAGTGCAG,5050 fluorescence intensity (a.u.)
2,TGGACTGCAGGCTGCAGAGCCCACCTCCTCCTGCATTGCACGGAGTCACCTAGTGCAG,7460 fluorescence intensity (a.u.)
3,ACCACCACGTGTCGCCGACCGCCTGCCACGTGGGCAGGGCCGGAGTCACCTAGTGCAG,24800 fluorescence intensity (a.u.)
4,AATGAAGTTTGAGAGTGACATACATAGTCTTAATCTGGCTCGGAGTCACCTAGTGCAG,3280 fluorescence intensity (a.u.)
5,GCCTCGAGATTCGTGCTCGCGGAACTTGCCGACGCGGCACCGGAGTCACCTAGTGCAG,5960 fluorescence intensity (a.u.)
6,GAATCTTGTGTTGACACGGCCGCAGATCTCACACGCGGTACGGAGTCACCTAGTGCAG,5410 fluorescence intensity (a.u.)
7,GGGGCTCACGCTGACTCCGCGTTATTGACTCGGGTCAAATCGGAGTCACCTAGTGCAG,4270 fluorescence intensity (a.u.)
8,TGATGTTCTTACTGGTGGTGCTGATGACAATACTGAACAGCGGAGTCACCTAGTGCAG,3840 fluorescence intensity (a.u.)
9,ACACGCGCAGCTCTGCCAGCGCAGCTCCCTCAGCACCTCTCGGAGTCACCTAGTGCAG,3450 fluorescence intensity (a.u.)
10,ACTACCCACTCATTGCCACGTGGGCGCCCGCCTCTGGGCCCGGAGTCACCTAGTGCAG,31400 fluorescence intensity (a.u.)
11,CTGATCTTTGCTTAGTGACGGGTGCCCTGTCCGAAAGAGACGGAGTCACCTAGTGCAG,3250 fluorescence intensity (a.u.)
12,TCTACAGTCACTCGCTTAGCCATGACATAAGCATCTTTCTCGGAGTCACCTAGTGCAG,4890 fluorescence intensity (a.u.)
13,CTAGGTCAACACCGCCATGTCAGCGCCACGTCAGCGAAACCGGAGTCACCTAGTGCAG,28700 fluorescence intensity (a.u.)
14,TGCTTCACCTTCACATATTGCACAAATTTAACCTCAGCTTCGGAGTCACCTAGTGCAG,3900 fluorescence intensity (a.u.)
15,TGTCTTTTCCTTGTCTCTCCTGATGTGTAAAACACAAGGCCGGAGTCACCTAGTGCAG,19500 fluorescence intensity (a.u.)
16,CGCGCATTCCGGTGAACAAGTGCGTGGCGTGGCGATCGGCCGGAGTCACCTAGTGCAG,4670 fluorescence intensity (a.u.)
17,CTCCGCCGCCTTCCCCGCCGCCGACCACGTCGACGCCGTCCGGAGTCACCTAGTGCAG,7790 fluorescence intensity (a.u.)
18,GTGTGTGCTGTCGTTTTCTTACGTGGAGTCACGTGACTGGCGGAGTCACCTAGTGCAG,8350 fluorescence intensity (a.u.)
19,CTTCCAGTCCTGCCAACAACAGGACTGCCACCACACAGCACGGAGTCACCTAGTGCAG,4840 fluorescence intensity (a.u.)
20,TTGTGAATAATTGCTCTTGTGCTAAGAAAATTCCAACTTACGGAGTCACCTAGTGCAG,26400 fluorescence intensity (a.u.)
21,CGATTCTCTTCGAGCTCTTGAATGGCTATCCACCATTCCGCGGAGTCACCTAGTGCAG,3320 fluorescence intensity (a.u.)
22,ATGTCTCTGCATCCGGGTAGTGGGTACAAATAAGCTGAGGCGGAGTCACCTAGTGCAG,3930 fluorescence intensity (a.u.)
23,GCTGATTTTCAAGGCGGGGAGAATGTTATGTAATTGGGTCCGGAGTCACCTAGTGCAG,3290 fluorescence intensity (a.u.)
24,GACCTGCAAACACAGCGCACGCACGCGCAAGCACACACATCGGAGTCACCTAGTGCAG,3230 fluorescence intensity (a.u.)
25,TGCATGTCCTCCGTCTGATGACGTTATTCCTGAGTACTCACGGAGTCACCTAGTGCAG,5560 fluorescence intensity (a.u.)
26,TGGAGGTCGAACCAAACGCGGTGATCTGGAGCACGCTGCTCGGAGTCACCTAGTGCAG,3790 fluorescence intensity (a.u.)
27,GCACTGGTGGTCAAACAGGAGGTGTAAATGCAACGTCAGCCGGAGTCACCTAGTGCAG,4540 fluorescence intensity (a.u.)

# 2 neighbouring entries out of the list so far:
row,Sequence,binding signal
6,GAATCTTGTGTTGACACGGCCGCAGATCTCACACGCGGTACGGAGTCACCTAGTGCAG,5410 fluorescence intensity (a.u.)
7,GGGGCTCACGCTGACTCCGCGTTATTGACTCGGGTCAAATCGGAGTCACCTAGTGCAG,4270 fluorescence intensity (a.u.)
